Article PMC10301333 (Pharmaceutics, 2023)
Some peptides are written in HELM: one residue between dots, names in brackets for other building blocks, links after the first $.

Experiment: general procedure: Fmoc solid-phase peptide synthesis; H-Rink Amide ChemMatrix, 0.5 mmol/g; HBTU/DIEA
Settings: oxidative folding step, analytical HPLC

Substance	final HPLC purity (several disulfide bridges)	final HPLC purity
YC3PYGNRLNYFC4PLGRTC5C6RRSY-amide	99.8%	
PEPTIDE1{S.Y.V.G.D.C.G.S.N.G.G.S.C.V.S.S.Y.C.P.Y.G.N.R.L.N.Y.F.C.P.L.G.R.T.C.C.R.R.S.Y.[am]}$PEPTIDE1,PEPTIDE1,6:R3-34:R3|PEPTIDE1,PEPTIDE1,13:R3-28:R3|PEPTIDE1,PEPTIDE1,18:R3-35:R3$$$V2.0		98.7%
